Patent US12486272B2 (NIHON NOHYAKU CO., LTD., priority 2019, dated 2025)
Some results were stated once for a whole list of compounds, not compound by compound.

Assays:
Plutella xylostella = conditions: 500 ppm, seedlings with laid eggs dipped about 30 seconds, 25° C., 6 days after dip treatment
Myzus persicae = experiment: Test for control efficacy on Myzus persicae (foliar application, potted Chinese cabbage); conditions: 500 ppm, foliar application to Chinese cabbage, 6 days after application
Laodelphax striatellus = conditions: 500 ppm, rice seedlings dipped 30 seconds, 3rd-instar larvae, 8 days after inoculation

CCS(=O)(=O)c1cc(/C(Br)=N/OCCSC)cnc1-c1nc2cc(C(F)(F)C(F)(F)F)nnc2n1C [Compound 1-16]
A (the control rate is 100%.): insecticidal efficacy (corrected mortality rate), activity level (Plutella xylostella) | control efficacy (control rate), activity level (Myzus persicae) | insecticidal efficacy (corrected mortality rate), activity level (Laodelphax striatellus)
